# PubChem BioAssay AID504793, Drosophila RNAi Screening Center | 2011
# Screen: 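Whole-genome screen for parts of the DNA damage checkpoint at G2/M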 (primary screen)
# Cell system: Drosophila S2R+ cells
# Knock-down reagent: long dsRNA against Drosophila genes, about 0.25 µg dsRNA per well
# Time to read-out: 4 days of dsRNA, then 4 hours of drug before read-out
# Challenge: doxorubicin 0.5 µM for 4 hours to cause double-strand breaks, in cells also given a low, harmless dose of dsRNA against nbs to sensitise the assay
# Detection: 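Per-well count of mitotic cells stained for phospho-histone H3 after doxorubicin exposure, used as mitotic index; counts are raw and not normalised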
# Direction: mitotic cells: higher = more cells in mitosis, weaker G2 arrest
# Hit rule: 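a call needs confirmation in secondary tests, with other dsRNAs and a check of mitotic timing without damage, not just a high primary count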
# Meaning of the calls: active = confirmed in follow-up tests; inactive = not confirmed
# The deposit covers about 23,000 reagents; below is an unselected part of those that have a named target and a result. Of all reagents, 62 (0.27%) got an active call. 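Calls come from follow-up tests whose scores are not deposited, so confirmed genes may have low counts here; counts are not normalised per plate.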 Raw values vary from plate to plate and are shown uncorrected. Names joined by + are all predicted targets of the reagent. No sequences are given here.
gene,PubChem SID,"mitotic cells, replicate 1",Call
sle + CG12592,SID104201153,8,inactive
sle + CG12592,SID104205670,7,inactive
teq,SID104190090,8,inactive
teq,SID104191093,5,inactive
teq,SID104191094,5,inactive
schlank,SID104197894,7,inactive
schlank,SID104198105,8,inactive
CG17327,SID104195017,9,inactive
CG34050 (retired record),SID104188859,2,inactive
CG34050 (retired record),SID104204775,13,inactive
CG3108,SID104198072,1,inactive
l(3)psg2,SID104190276,1,inactive
l(3)psg2,SID104203020,4,inactive
Xpc,SID104187446,11,inactive
Taf11,SID104183240,2,inactive
Usp10,SID104188074,4,inactive
Usp10,SID104188165,9,inactive
Sp7,SID104195253,9,inactive
unc80,SID104195121,6,inactive
Gr64e + Gr64d,SID104206919,8,inactive
lncRNA:CR32660,SID104202322,13,inactive
lncRNA:CR32660,SID104204413,7,inactive
Men-b,SID104196528,16,inactive
CaMKI,SID104196954,6,inactive
dsh,SID104199595,18,inactive
dsh,SID104216719,8,inactive
CG17974,SID104184091,7,inactive
Mat89Ba,SID104194332,5,inactive
Mat89Ba,SID104207710,6,inactive
jtb,SID104186660,9,inactive
Rh50,SID104188484,1,inactive
CG7739,SID104190702,7,inactive
CG8671,SID104182894,7,inactive
CG8671,SID104182895,11,inactive
CG8671,SID104205723,9,inactive
prd1,SID104195019,4,inactive
PolE4,SID104183897,12,inactive
CG30414,SID104184164,6,inactive
CG30414,SID104207292,7,inactive
Rcd7,SID104189892,6,inactive
Mob3,SID104182583,3,inactive
CG14182,SID104189973,2,inactive
CG32022,SID104189470,7,inactive
Mon1,SID104180128,2,inactive
Mon1,SID104205270,7,inactive
CG5707,SID104188365,6,inactive
CG5707,SID104203437,4,inactive
CG34384,SID104194647,3,inactive
CG34384,SID104195236,7,inactive
CG34384,SID104196367,4,inactive
Takl1,SID104193235,6,inactive
Takl1,SID104206795,7,inactive
l(3)neo43,SID104194780,6,inactive
Df31,SID104183530,3,inactive
Df31,SID104201710,11,inactive
CG8508,SID104196228,4,inactive
CG15376 (retired record),SID104197838,10,inactive
CG15376 (retired record),SID104203643,3,inactive
ALiX,SID104194356,6,inactive
ALiX,SID104205550,3,inactive
PGRP-LC,SID104188772,8,inactive
PGRP-LC,SID104190208,1,inactive
PGRP-LC,SID104190209,5,inactive
PGRP-LC,SID104207100,9,inactive
foxo,SID104192809,16,inactive
foxo,SID104195255,12,inactive
CG31064,SID104194548,12,inactive
CG31064,SID104195733,10,inactive
CG31064,SID104195734,7,inactive
CG31064,SID104195735,14,inactive
Obp56f,SID104201790,8,inactive
CG15861,SID104184066,5,inactive
CG15861,SID104207853,6,inactive
CG34426,SID104189769,3,inactive
CG32440,SID104191272,3,inactive
insb,SID104186787,5,inactive
insb,SID104203173,7,inactive
CG5404,SID104195585,8,inactive
CG5404,SID104207376,8,inactive
brat,SID104183289,5,inactive
brat,SID104214969,10,inactive
CG14330,SID104194601,18,inactive
Uba1,SID104187359,11,inactive
Uba1,SID104206894,16,inactive
Su(var)205,SID104183238,6,inactive
sowi,SID104192350,5,inactive
sowi,SID104203036,8,inactive
Vps35,SID104184311,6,inactive
Vps35,SID104207334,2,inactive
Med,SID104204313,5,inactive
mirr,SID104191161,,inactive
mirr,SID104203996,3,inactive
tty,SID104200380,6,inactive
tty,SID104205412,9,inactive
Ubr3,SID104197779,6,inactive
Ubr3,SID104197789,8,inactive
Ubr3,SID104206017,6,inactive
Ubr3,SID104207616,5,inactive
CG31036,SID104194847,4,inactive
CG31036,SID104194849,4,inactive
Nthl1,SID104182975,7,inactive
DCTN3-p24,SID104184384,5,inactive
DCTN3-p24,SID104207700,16,inactive
Ugt303B3,SID104193991,18,inactive
Ugt303B3,SID104204930,5,inactive
Stlk,SID104202077,1,inactive
aru,SID104180594,2,inactive
aru,SID104201605,9,inactive
FIG4,SID104180307,7,inactive
CG13893,SID104188155,3,inactive

Copied from the entries so far for reference:
gene,PubChem SID,"mitotic cells, replicate 1",Call
Usp10,SID104188074,4,inactive
Usp10,SID104188165,9,inactive
Sp7,SID104195253,9,inactive
unc80,SID104195121,6,inactive
Gr64e + Gr64d,SID104206919,8,inactive
lncRNA:CR32660,SID104202322,13,inactive
lncRNA:CR32660,SID104204413,7,inactive
Men-b,SID104196528,16,inactive
CaMKI,SID104196954,6,inactive
dsh,SID104199595,18,inactive
dsh,SID104216719,8,inactive
CG17974,SID104184091,7,inactive
Mat89Ba,SID104194332,5,inactive
Mat89Ba,SID104207710,6,inactive
jtb,SID104186660,9,inactive
Rh50,SID104188484,1,inactive
CG7739,SID104190702,7,inactive
